From article PMC6137095, “Sertraline, chlorprothixene, and chlorpromazine characteristically interact with the REST-binding site of the corepressor mSin3, showing medulloblastoma cell growth inhibitory activities” (Scientific Reports, 2018) come the findings set out here.

A word on the Kd: it is the concentration at which binding is half-saturated. Read a high Kd as weaker binding.

The target of the test is T1, mSin3B PAH1 domain (Mus musculus, UniProt Q62141).
T1 construct: gene Sin3b; PAH1 domain, a.a; 28–107 with a Met at the N-terminus (GST fusion for WaterLOGSY/STD)
T1 sequence (Q62141 28-107): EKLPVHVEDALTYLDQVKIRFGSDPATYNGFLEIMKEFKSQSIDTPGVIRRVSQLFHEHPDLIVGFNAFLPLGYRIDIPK
As to the kind of experiment: WaterLOGSY NMR titration; STD and 1H-15N HSQC. The test is classed as binding.

`CN[C@H]1CC[C@@H](c2ccc(Cl)c(Cl)c2)c2ccccc21` [YN31, sertraline] registered a Kd of 39 ± 22 µM.
